Measured values published in publication PMC5458466, “DNA‐induced unfolding of the thyroid hormone receptor α A/B domain through allostery”.
No constants are given. Whether binding was seen depends on the method and setting.

Key:
[1] = molecular target: TRα (A/B + DBD), chicken thyroid hormone receptor α1, amino acids 1–154 (chicken) (UniProt P04625); assay: SEC; size-exclusion chromatography on S200 Superdex 16/60 in 50 mM HEPES pH 7.5, 125 mM NaCl, 5 mM MgCl2, 1 mM TCEP; protein analysed by SDS/PAGE; both purified
[2] = molecular target: TRα (DBD), chicken thyroid hormone receptor α1, amino acids 37–154 (chicken) (UniProt P04625); assay: as above

binding [1]	binding [2]	Binder
no binding		TRα (A/B + DBD), chicken thyroid hormone receptor α1, amino acids 1–154 (domain or fragment, UniProt P04625 1-154) MEQKPSTLDPLSEPEDTRWLDGKRKRKSSQCLVKSSMSGYIPSYLDKDEQCVVCGDKATGYHYRCITCEGCKGFFRRTIQKNLHPTYSCKYDGCCVIDKITRNQCQLCRFKKCISVGMAMDLVLDDSKRVAKRKLIEENRERRRKEEMIKSLQH
	no binding	TRα (DBD), chicken thyroid hormone receptor α1, amino acids 37–154 (domain or fragment, UniProt P04625 37-154) MSGYIPSYLDKDEQCVVCGDKATGYHYRCITCEGCKGFFRRTIQKNLHPTYSCKYDGCCVIDKITRNQCQLCRFKKCISVGMAMDLVLDDSKRVAKRKLIEENRERRRKEEMIKSLQH
